# Results published in PubChem BioAssay AID1259415 (National Center for Advancing Translational Sciences (NCATS), 2018).
# Screen size: about 410,000 compounds; about 18,000 (4.4%) were called active. The inconclusive results got no clear call from the source; some entries with a clear call stand among them for comparison. No stated cut-off is given here; in the data, active means activity change below about -60%; inconclusive means no clear call, values can overlap the other calls; inactive means above about -39%.
# Test: qHTS Assay for inhibitors of the human cytomegalovirus (HCMV)
# Conditions: HFF cells, HCMV-luciferase reporter, 72 h; at 57.5 µM; hits give low values
# How it was run: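 Two-dose cell screen: HFF monolayers treated with compounds and infected with luciferase-expressing HCMV at 1 PFU/cell, 72 h at 37C, then lysed for luciferase measurement.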
# On the % scale 0 is the no-effect control and ±100 the full control effect.
row,SMILES,"activity change, negative = inhibition"
1,N#Cc1ccccc1S(=O)(=O)N1CCN(C(=O)[C@@H]2CCCN2C(=O)c2cccs2)CC1,inconclusive: -46.3%
2,Cc1c(C(=O)N2CCCCC2)c(S(=O)(=O)N2CCN(c3ccccc3F)CC2)c(C)n1C,inconclusive: -43%
3,CC(C)(C)c1ccc(C(=O)NCC(=O)OCCN2C(=O)c3ccccc3C2=O)cc1,inactive: 2.47%
4,CCC(=O)Oc1ccc(NC(=O)c2ccc(S(=O)(=O)N3CCCC3)cc2)cc1,inconclusive: -53.2%
5,CCCc1nn2c(=O)cc(CSCC(=O)Nc3ccc(OC)cc3)nc2s1,inconclusive: -57.3%
6,CC1CC(C)CN(S(=O)(=O)c2ccccc2[N+](=O)[O-])C1 (centres undefined),active: -72.2%
7,CC(C)c1ccc(Nc2nc3ccc(C(=O)c4ccccc4)cc3n3cnnc23)cc1,inconclusive: 0%
8,O=C(Nc1cccc(F)c1)Nc1cnccn1,inconclusive: -42.7%
9,O=[N+]([O-])c1ccc(O)c([N+](=O)[O-])c1,inconclusive: -42.4%
10,COc1ccc(OCC(=O)Nc2ccc(N3CCN(C(=O)c4ccccc4)CC3)c(Cl)c2)cc1,inconclusive: -42.3%
11,Cc1cccc(CN2C(=O)/C(=C\c3ccc(C(=O)NCCCN4CCN(C)CC4)cc3)Oc3ccccc32)c1,inconclusive: -56.9%
12,CCn1c(=NC(=O)CSC(C)=O)sc2cc(F)ccc21,inconclusive: -46.9%
13,CCOc1ccc(NC(=O)COc2ccc(C(=O)NCCc3ccccc3)cc2)cc1,active: -80.5%
14,NS(=O)(=O)c1cccc(NC(=O)Nc2ccccc2)c1,inactive: 19.9%
15,CCn1c(CNC(=O)c2ccco2)nnc1SCC(=O)Nc1ccccc1Cl,inactive: -19.6%
16,O=C1c2[nH]nc(-c3ccccc3O)c2C(c2cccc(Cl)c2)N1CC1CCCO1 (centres undefined),inconclusive: -44.3%
17,CC(C)CN(c1ccccc1)S(=O)(=O)c1nnc(NC(=O)c2ccco2)s1,inconclusive: -56.3%
18,COc1ccc(NC(=O)CSCc2cc(=O)n3c(C)csc3n2)cc1,inactive: -2.51%
19,CCOC(=O)N1CCN(c2ncnc3c2[nH]c2ccc(OC)cc23)CC1,inconclusive: -52%
20,COc1ccc([N+](=O)[O-])cc1Nc1c2ccccc2nc2ccccc12,inconclusive: -48.6%
21,CCOC(=O)c1ccc(N2C(=O)c3n[nH]c(C)c3C2c2ccc(OC)c(OC)c2)cc1 (centres undefined),inactive: 18.1%
22,COCCCNC(=O)Cn1c(=O)n(CCCC(=O)NCc2ccc(C)cc2)c(=O)c2ccccc21,inactive: 2.87%

row,SMILES,"activity change, negative = inhibition"
1,CCN(CC)C(=O)COc1ccc(/C=C(\C#N)S(=O)(=O)c2ccccc2)cc1OC,inactive: -9.78%
2,COc1ccc(-n2cc(-c3ccc(OC(F)F)cc3)[n+]3c2CCCCC3)cc1,active: -84.9%
3,O=C(O)CCCc1ccc2c(c1)CCc1ccccc1-2,inconclusive: -46.6%
4,COc1ccc(C(=O)CSc2nc3cccnc3n2C)cc1,inconclusive: -55.9%
5,O=C(c1cnn(-c2nc3ccccc3s2)c1)c1ccccc1O,inactive: -4.1%
6,CCCCN1CCCCC1C(=O)Nc1c(C)cccc1C (centres undefined),inconclusive: -44.3%
7,O=c1[nH]c2c(s1)C(c1ccccc1)C1C3CCC(C3)C1S2 (centres undefined),inconclusive: -45.5%
8,O=C(NCc1ccccc1)C1=C[C@@H](c2ccccc2)C[C@@H](OCc2ccc(CO)cc2)O1,inactive: 9.87%
9,CCCCCSc1nnc2c(n1)OC(c1ccc(C)s1)N(C(C)=O)c1ccccc1-2 (centres undefined),inconclusive: -56.4%
10,O=C(O)c1ccc(Cn2cnc3scc(-c4ccccc4)c3c2=O)cc1,inconclusive: -50.1%
11,Cc1cccc(N2CCN(C(=O)Nc3ccc(F)cc3)CC2C)c1 (centres undefined),inactive: -20.2%
12,CCN(CC(=O)Nc1cccc(OC)c1)c1ncnc2sc(C)c(C)c12,active: -73.8%
13,CC1CCCN(S(=O)(=O)c2ccc(NC(=O)C3CCN(C(=O)C(C)(C)C)CC3)cc2)C1 (centres undefined),inconclusive: -48.6%
14,CCCC(C(=O)NC1CCCC1)N(Cc1ccccc1)C(=O)c1snc(C(N)=O)c1N (centres undefined),inconclusive: -53%
15,COC(CNC(=O)Cc1c(C)nc2c(-c3ccccc3)c(C)nn2c1C)OC,inconclusive: -54.5%
16,C=CCNc1nc(N)c([N+](=O)[O-])c(Nc2cccc(Cl)c2)n1,inactive: 15.4%
17,CC1CCCN(S(=O)(=O)c2ccc(S(=O)(=O)NC(C)c3cccs3)cc2)C1 (centres undefined),inconclusive: -46.2%
18,Cc1cc(=O)[nH]c2nnc(SCc3cccc(F)c3)n12,inconclusive: -47.2%
19,CN(C)c1oc(-c2ccco2)nc1S(=O)(=O)c1ccc(Br)cc1,inconclusive: -53.3%
20,Cc1ccc(Cn2cc(CCC(=O)NC3CCCCC3)c3ccccc32)cc1,inconclusive: -43.9%
21,COc1ccc(COC(=O)c2cc([N+](=O)[O-])ccc2N2CCOCC2)cc1F,active: -72.5%
22,COC(=O)CCN1CCSCCS1(=O)=O,inactive: -10.9%

# A draw from above in order of length of the SMILES, largest number first.
row,SMILES,"activity change, negative = inhibition"
14,CCCC(C(=O)NC1CCCC1)N(Cc1ccccc1)C(=O)c1snc(C(N)=O)c1N (centres undefined),inconclusive: -53%
4,COc1ccc(C(=O)CSc2nc3cccnc3n2C)cc1,inconclusive: -55.9%
22,COC(=O)CCN1CCSCCS1(=O)=O,inactive: -10.9%
